Assay results published in patent US5316919A (priority 1992, dated 1994).
For part of these data: Some peptides are written in HELM: one residue between dots, names in brackets for other building blocks, links after the first $.

Legend:
Details in all cases: whole synthesis, scale 0.5 mmol
[1] = Boc solid-phase peptide synthesis; Boc-Glu(OBzl) PAM resin; dicyclohexylcarbodiimide
[2] = Boc solid-phase peptide synthesis; Boc-L-Ala PAM resin; dicyclohexylcarbodiimide
[3] = Boc solid-phase peptide synthesis; Boc-L-Pro PAM resin; dicyclohexylcarbodiimide

H-HSDAVFTDNYTRLRKQLAVKKYLNSILNGPE-OH showed an isolated mass [1] of 50 mg.

Work on “PEPTIDE1{H.S.D.A.V.F.T.D.N.Y.T.R.L.R.K.Q.L.A.V.K.K.Y.L.N.S.I.L.N.G.P.E.A}$$$$V2.0” yielded an isolated mass [2] of 40 mg.

“PEPTIDE1{H.S.D.A.V.F.T.D.N.Y.T.R.L.R.K.Q.L.A.V.K.K.Y.L.N.S.I.L.N.G.P}$$$$V2.0” showed an isolated mass [3] of 50 mg.
